In PubChem BioAssay AID540276 (National Center for Advancing Translational Sciences (NCATS), 2011):
Hit rate of the full screen: of about 300,000 compounds, about 5,400 (1.8%) were called active. Inconclusive results, whose numbers are uncertain, are shown with a selection of clear calls. Calls come from the whole dose curve; tested in HEK293 cells. Potencies beside an inconclusive call are fits to weak or partial responses and may not hold up.

Test: qHTS for inhibitors of binding or entry into cells for Marburg Virus
Conditions: Marburg virus pseudotyped entry inhibition, cell reporter; series mostly up to 37.8 µM
Potency is the fitted concentration of half-maximal effect.

Structure (SMILES)	Potency
C=CCc1cccc(CNc2nc3ccccc3n2CC)c1O	inconclusive: 35.5 µM [inhibitor, single point]
Nc1ccc2nc(SCC(=O)c3ccccc3)sc2c1	inactive
CC12CCC(C(=O)N(Cc3ccccc3)Cc3ccccc3)(OC1=O)C2(C)C (configuration not stated)	inconclusive: 35.5 µM [inhibitor, single point]
Clc1cccc(Cl)c1CNc1ccc(N2CCCC2)cc1	inconclusive: 5.62 µM [activator, partial curve, poor fit]
CCOc1cc(N2CCOCC2)c(OCC)cc1NC(=O)C(NC(=O)c1ccco1)C(C)C (configuration not stated)	inconclusive: 0.0891 µM [inhibitor, full curve, poor fit]
CC1CC(C)CN(CCCNC(=O)c2ccc(CNS(=O)(=O)c3ccc(F)cc3)cc2)C1 (configuration not stated)	inconclusive: 15.8 µM [inhibitor, single point]
COc1cc(C(=O)Nc2ccc(NC(=O)c3ccccc3Cl)nc2)cc(OC)c1OC	inconclusive: 15.8 µM [inhibitor, single point]
CCOc1ccc(CNC(=O)c2cc3c(s2)-c2ccccc2OC3)cc1	inactive
COc1ccc(NC(=O)c2ccc(Br)c(S(=O)(=O)N3CCOCC3)c2)cc1	inconclusive: 35.5 µM [inhibitor, single point]
Cc1ccc(C(=O)N/N=C\c2cc3c(cc2Br)OCO3)cn1	inactive
COc1ccc(N=C2S/C(=C\c3cc(C)n(C)c3C)C(=O)N2C)cc1	inconclusive: 11.2 µM [inhibitor, partial curve, poor fit]
C=CCN(c1ccccc1)S(=O)(=O)c1cccc(C(=O)Nc2ccncc2)c1	inconclusive: 5.62 µM [inhibitor, full curve]
Cc1ccc(Nc2c(-c3ccc(C)cc3)nc3ccc(C)cn23)cc1	inconclusive: 12.6 µM [activator, single point]
N#C/C(=C/c1ccc(N2CCCCC2)o1)c1cccc(F)c1	inconclusive: 1.16 µM [activator, single point]
Cc1[nH]c(=O)[nH]c(=O)c1S(=O)(=O)N1CCCC(C(=O)NCc2ccco2)C1 (configuration not stated)	inconclusive: 0.0891 µM [activator, full curve, poor fit]
CCc1ccc2oc(-c3cccc(NC(=O)C(C)(C)Oc4ccc(Br)cc4)c3)nc2c1	inconclusive: 8.91 µM [activator, partial curve, poor fit]
Cc1nc(SCC(N)=O)[nH]c(=O)c1Cc1ccc(OC(C)C)cc1	inactive
CCS(=O)(=O)c1nc(S(=O)(=O)c2ccc(C)cc2)c(NC(C)c2ccccc2)s1 (configuration not stated)	inconclusive: 5.62 µM [inhibitor, single point]
CCOc1ccc(/C=N/NC(=O)COc2ccccc2-c2ccccc2)cc1	inconclusive: 11.2 µM [inhibitor, partial curve, poor fit]
O=C1NC(=O)C2(C=C(c3ccccc3)C(O)(c3ccccc3)C2)N1 (configuration not stated)	inconclusive: 0.631 µM [inhibitor, single point]
Cc1ccc(-c2cc(C(F)F)n3ncc(C(=O)N4CCCCC4c4cccnc4)c3n2)cc1 (configuration not stated)	inconclusive: 5.62 µM [inhibitor, full curve, poor fit]

Structure (SMILES)	Potency
Cc1ccc(C2CC(c3cccc(Br)c3)Nc3nnnn32)cc1 (configuration not stated)	inactive
CC(=O)c1sc(N/N=C\c2c(O)ccc3ccccc23)nc1C	inconclusive: 14.1 µM [inhibitor, single point]
CC1CCc2c(C(=O)NCc3cccnc3)csc2C1 (configuration not stated)	inactive
COc1ccccc1CNC(=O)Cc1ccc(OC)c(OC)c1	inactive
CCC(C)COC(=O)C(C#N)c1nc2ccccc2nc1N1CCCCC1 (configuration not stated)	inactive
COc1ccc(COC(=O)N/N=C2/C[C@@H](O)[C@@H](O)[C@@H]3[C@H]4C(=O)N(c5ccc(F)cc5F)C(=O)[C@@H]4CC[C@@H]23)cc1	inconclusive: 5.31 µM [activator, single point]
CN(CC(=O)NC(c1ccccc1)c1ccccc1)Cc1nc2ccccc2c(=O)[nH]1	inconclusive: 35.5 µM [inhibitor, single point]
COc1cc2cc(CN(CCN3CCCC3)C(=O)Nc3ccc(F)cc3)c(=O)[nH]c2cc1OC	inconclusive: 35.5 µM [inhibitor, single point]
CCCCNC(=S)N(C)/N=C/c1sc(N2CCCCC2)nc1-c1cccs1	inactive
O=C(CSc1nnc(Nc2ccccc2)s1)NCCN1C(=O)CSC1=O	inactive
CCOC(=O)C1=C(C)Nc2ccccc2N=C1NC(=O)C(c1ccccc1)c1ccccc1	inconclusive: 3.55 µM [inhibitor, single point]
CSc1ccc(-c2nnn(CC(=O)NCc3ccccc3)n2)cc1	inconclusive: 25.1 µM [inhibitor, single point]
Cn1c(SCC(=O)Nc2ncc(C(F)(F)F)cc2Cl)nnc1-c1ccc(Cl)cc1	inconclusive: 31.6 µM [activator, single point]
C(=N\n1cnnc1)/c1ccccc1OCCOc1ccccc1	inconclusive: 22.4 µM [inhibitor, single point]
CC(=O)Nc1cccc(NC(=O)CCNC(=O)c2ccccc2)c1	inactive
CCSC1=NCCN1C(=O)C(C)(C)Oc1ccc(Cl)cc1	inconclusive: 14.1 µM [inhibitor, single point]
O=C(Cc1ccc(Cl)cc1)NCCc1cnc[nH]1	inactive
Cc1ccc(S(=O)(=O)N2CCN(C(=O)C3CCN(C(=O)c4ccc(F)cc4)CC3)CC2)c(C)c1	inconclusive: 35.5 µM [inhibitor, single point]
COc1ccc(/C=N/NC(=O)c2[nH]c3ccc(Br)cc3c2-c2ccccc2)cc1	inconclusive: 1.03 µM [inhibitor, full curve, poor fit]
O=C(CSC1=N/C(=C/c2ccc(Cl)c(Cl)c2)C(=O)N1c1ccccc1F)NC1CC1	inconclusive: 22.4 µM [inhibitor, single point]
COc1ccc2nc(N3CCCC3)c(C#N)cc2c1	inconclusive: 7.3 µM [activator, partial curve, poor fit]

A different layout for part of the listing above:
Structure (SMILES),Potency
Cc1ccc(C2CC(c3cccc(Br)c3)Nc3nnnn32)cc1 (configuration not stated),inactive
CC(=O)c1sc(N/N=C\c2c(O)ccc3ccccc23)nc1C,"inconclusive: 14.1 µM [inhibitor, single point]"
